Changes are numbered by the printed parent chain. In names and notes the source's numbering stands. No constants are given. Whether binding was seen depends on the method and setting. In cells and extracts the contact can be indirect. Some entries that bind do so weakly or less than the wild type. Tags and fused reporters may be left off the sequences shown. Blank lines part the entries; values can stand above or below the binder they belong to.
How the values were obtained:
[1] = target: HSP27 containing V5 and HIS6 epitope tags (human), P04792; test: co-immunoprecipitation with anti-EGFP antibody from co-transfected HEK293T cells, Western blot; settings: remark: other sources report otherwise
[2] = target: HSP27 containing V5 and HIS6 epitope tags (human) (UniProt P04792); test: as above

Chains of the proteins cited; added tags and fusions are not shown.
UniProt P04792: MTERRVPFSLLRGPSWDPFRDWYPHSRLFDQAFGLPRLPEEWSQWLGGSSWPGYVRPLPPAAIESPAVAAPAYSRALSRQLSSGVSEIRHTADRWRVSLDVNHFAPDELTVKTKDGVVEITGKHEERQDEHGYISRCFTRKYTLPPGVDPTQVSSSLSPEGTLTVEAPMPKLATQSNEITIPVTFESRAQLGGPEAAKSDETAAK

binding [1]: binds
B1: EGFP-tagged HSP22 wild type, Q5RAB0 1-196 (protein, not shown: large carriers)
chain: MADGQMPFSCHYPSRLRRDPFRDSPLSSRLLDDGFGMDPFPDDLTASWPDWALPRLSSAWPGTLRSGMVPRGPTATARFGVPAEGRTPPPFPGEPWKVCVNVHSFKPEELMVKTKDGYVEVSGKHEEKQQEGGIVSKNFTKKIQLPAEVDPVTVFASLSPEGLLIIEAPQVPPYSTFGESSFNNELPQDSQEVTCT

binding [2]: binds
B2: EGFP-tagged HSP22 K141E mutant (protein, not shown: large carriers)
chain: B1 chain with K141E

binding [2]: binds
B3: EGFP-tagged HSP22 K141N mutant (protein, not shown: large carriers)
chain: B1 chain with K141N
